In PubChem BioAssay AID2734 (National Center for Advancing Translational Sciences (NCATS), 2010):
The inconclusive results got no clear call from the source; some entries with a clear call stand among them for comparison. Where a call stands in place of a potency, no number is given. Potencies beside an inconclusive call are fits to weak or partial responses and may not hold up. Active and inactive are the calls of the source. Calls follow the shape of the dose curve; as a rule, active = well fitted inhibition curve with a large enough effect; inconclusive = small, poorly fitted or top-dose-only effect, or effect the other way; inactive = no such curve, though single readings can be large or run the other way.

Experiment: High Content Assay for Compounds that inhibit the Assembly of the Perinucleolar Compartment: DNA Intercalation/PicoGreen Displacement Assay
Details: fluorescence (intercalation counter-screen); series mostly up to 57.1 µM
Procedure, shortened: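 PicoGreen displacement from pBR322 DNA (200 ng/ml, TE): compound-plus-DNA fluorescence read first to flag artifacts, then dye added and read after 10 min at 37 C (488/520 nm). Propidium iodide, 100 ng/ml, as intercalation control.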

SMILES	Potency
Cc1cc(SCC(=O)c2cc(C)n(C)c2C)nc2ccccc12	inconclusive: 39.8 µM [activator, partial curve]
CCCNC1=C(N(C(C)=O)c2cccc(F)c2)C(=O)c2ccccc2C1=O	inactive
Cc1ccccc1C(=O)NNC(=S)Nc1cccc(C(F)(F)F)c1	inactive
CSc1nc(-c2ccc(C)cc2)nc(C(Cl)Cl)n1	inactive
CC(=O)Nc1cccc(Oc2ncnc3scc(-c4ccc(C)cc4)c23)c1	inconclusive: 14.1 µM [activator, full curve]
CCOC(=O)CSc1nc2c(sc3ccc([N+](=O)[O-])cc32)c(=O)n1Cc1ccco1	inactive
